According to the supplement of paper PMC10849652:
Some of the results follow.

The chains behind the UniProt entries cited, without tags or fusion partners. Where a name states a change or a piece, a line headed by the entry shows the natural chain unless it says otherwise.
UniProt P0DMB2: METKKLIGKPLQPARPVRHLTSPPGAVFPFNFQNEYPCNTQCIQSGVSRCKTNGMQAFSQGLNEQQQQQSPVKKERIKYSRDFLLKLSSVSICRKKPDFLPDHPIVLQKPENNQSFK
UniProt Q9NX04: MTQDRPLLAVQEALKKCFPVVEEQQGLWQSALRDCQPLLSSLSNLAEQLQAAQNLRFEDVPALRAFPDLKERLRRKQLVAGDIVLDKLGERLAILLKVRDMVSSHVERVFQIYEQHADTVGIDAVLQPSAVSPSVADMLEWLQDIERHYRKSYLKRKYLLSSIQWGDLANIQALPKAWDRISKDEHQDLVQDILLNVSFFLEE
UniProt Q01518, whole entry, looked up: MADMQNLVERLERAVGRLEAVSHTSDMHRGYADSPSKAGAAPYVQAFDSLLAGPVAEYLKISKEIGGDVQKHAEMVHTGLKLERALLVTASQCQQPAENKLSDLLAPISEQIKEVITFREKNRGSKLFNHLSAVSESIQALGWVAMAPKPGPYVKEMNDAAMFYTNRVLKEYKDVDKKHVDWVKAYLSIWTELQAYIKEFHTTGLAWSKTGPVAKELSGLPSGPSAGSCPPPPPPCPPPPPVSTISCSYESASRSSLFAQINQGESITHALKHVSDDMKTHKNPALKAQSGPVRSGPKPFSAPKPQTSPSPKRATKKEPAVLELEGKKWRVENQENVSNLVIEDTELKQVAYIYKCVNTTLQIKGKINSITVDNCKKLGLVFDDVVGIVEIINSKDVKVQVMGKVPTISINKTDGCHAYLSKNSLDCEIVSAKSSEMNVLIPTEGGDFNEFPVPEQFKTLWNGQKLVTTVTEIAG
UniProt Q504U0: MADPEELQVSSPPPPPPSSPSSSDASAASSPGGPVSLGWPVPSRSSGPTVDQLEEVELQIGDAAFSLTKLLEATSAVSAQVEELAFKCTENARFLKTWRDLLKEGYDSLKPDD
UniProt Q9NQ89: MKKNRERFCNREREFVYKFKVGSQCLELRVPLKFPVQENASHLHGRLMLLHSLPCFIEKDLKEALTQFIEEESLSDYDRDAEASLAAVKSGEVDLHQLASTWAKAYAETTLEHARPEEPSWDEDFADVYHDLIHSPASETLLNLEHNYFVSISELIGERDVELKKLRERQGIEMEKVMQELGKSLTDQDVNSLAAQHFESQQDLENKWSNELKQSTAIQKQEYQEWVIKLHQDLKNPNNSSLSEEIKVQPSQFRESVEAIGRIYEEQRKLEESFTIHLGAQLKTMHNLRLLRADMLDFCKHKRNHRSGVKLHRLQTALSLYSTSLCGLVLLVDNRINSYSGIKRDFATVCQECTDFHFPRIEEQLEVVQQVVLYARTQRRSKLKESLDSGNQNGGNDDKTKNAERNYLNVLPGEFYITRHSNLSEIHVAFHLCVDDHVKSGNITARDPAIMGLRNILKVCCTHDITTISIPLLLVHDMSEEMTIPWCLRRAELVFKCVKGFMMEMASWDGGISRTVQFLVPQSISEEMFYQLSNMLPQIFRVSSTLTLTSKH
UniProt Q3KRA6: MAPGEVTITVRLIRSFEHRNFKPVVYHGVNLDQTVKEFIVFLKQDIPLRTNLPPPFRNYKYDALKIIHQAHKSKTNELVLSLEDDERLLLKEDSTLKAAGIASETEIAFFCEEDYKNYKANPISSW
UniProt Q32NC0: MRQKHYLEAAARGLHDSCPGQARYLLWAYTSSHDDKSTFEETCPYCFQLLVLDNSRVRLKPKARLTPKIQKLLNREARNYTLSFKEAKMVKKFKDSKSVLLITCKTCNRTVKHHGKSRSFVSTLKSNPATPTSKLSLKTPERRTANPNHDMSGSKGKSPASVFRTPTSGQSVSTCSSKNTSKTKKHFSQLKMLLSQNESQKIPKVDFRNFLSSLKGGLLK
UniProt Q7Z7L8: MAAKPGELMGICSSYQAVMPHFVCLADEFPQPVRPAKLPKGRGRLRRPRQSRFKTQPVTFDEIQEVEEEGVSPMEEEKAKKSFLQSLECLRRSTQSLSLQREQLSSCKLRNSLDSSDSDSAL
UniProt Q6PH81: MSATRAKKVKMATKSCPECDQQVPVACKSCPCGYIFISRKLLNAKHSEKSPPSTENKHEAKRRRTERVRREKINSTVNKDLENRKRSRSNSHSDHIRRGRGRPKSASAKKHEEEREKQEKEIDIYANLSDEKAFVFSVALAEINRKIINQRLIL
UniProt Q9BX69: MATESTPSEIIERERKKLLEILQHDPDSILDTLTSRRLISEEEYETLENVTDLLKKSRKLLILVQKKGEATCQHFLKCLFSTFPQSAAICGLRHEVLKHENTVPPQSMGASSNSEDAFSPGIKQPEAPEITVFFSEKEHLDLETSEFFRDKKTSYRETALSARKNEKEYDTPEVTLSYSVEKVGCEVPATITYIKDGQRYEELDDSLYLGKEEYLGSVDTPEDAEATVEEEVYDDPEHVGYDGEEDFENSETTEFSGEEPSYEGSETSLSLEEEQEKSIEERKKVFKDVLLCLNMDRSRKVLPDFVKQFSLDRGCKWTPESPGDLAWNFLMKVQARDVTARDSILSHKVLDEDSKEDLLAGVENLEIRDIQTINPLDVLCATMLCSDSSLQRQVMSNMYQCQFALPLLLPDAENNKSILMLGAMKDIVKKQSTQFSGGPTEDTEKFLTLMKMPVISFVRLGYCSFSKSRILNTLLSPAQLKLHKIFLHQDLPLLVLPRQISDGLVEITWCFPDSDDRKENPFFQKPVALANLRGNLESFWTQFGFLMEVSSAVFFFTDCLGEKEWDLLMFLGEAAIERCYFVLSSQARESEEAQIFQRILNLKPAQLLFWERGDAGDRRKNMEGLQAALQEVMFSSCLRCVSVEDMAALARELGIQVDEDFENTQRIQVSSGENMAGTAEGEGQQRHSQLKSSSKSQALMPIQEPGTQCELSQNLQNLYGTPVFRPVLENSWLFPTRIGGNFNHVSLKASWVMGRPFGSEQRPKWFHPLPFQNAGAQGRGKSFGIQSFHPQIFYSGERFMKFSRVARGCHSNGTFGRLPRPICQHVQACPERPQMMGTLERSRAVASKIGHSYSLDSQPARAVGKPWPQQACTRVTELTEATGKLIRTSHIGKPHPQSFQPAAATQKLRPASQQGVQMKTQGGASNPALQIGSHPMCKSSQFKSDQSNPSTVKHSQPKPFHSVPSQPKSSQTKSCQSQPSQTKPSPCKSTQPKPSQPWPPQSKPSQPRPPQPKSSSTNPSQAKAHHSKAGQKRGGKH
UniProt Q0VDD7: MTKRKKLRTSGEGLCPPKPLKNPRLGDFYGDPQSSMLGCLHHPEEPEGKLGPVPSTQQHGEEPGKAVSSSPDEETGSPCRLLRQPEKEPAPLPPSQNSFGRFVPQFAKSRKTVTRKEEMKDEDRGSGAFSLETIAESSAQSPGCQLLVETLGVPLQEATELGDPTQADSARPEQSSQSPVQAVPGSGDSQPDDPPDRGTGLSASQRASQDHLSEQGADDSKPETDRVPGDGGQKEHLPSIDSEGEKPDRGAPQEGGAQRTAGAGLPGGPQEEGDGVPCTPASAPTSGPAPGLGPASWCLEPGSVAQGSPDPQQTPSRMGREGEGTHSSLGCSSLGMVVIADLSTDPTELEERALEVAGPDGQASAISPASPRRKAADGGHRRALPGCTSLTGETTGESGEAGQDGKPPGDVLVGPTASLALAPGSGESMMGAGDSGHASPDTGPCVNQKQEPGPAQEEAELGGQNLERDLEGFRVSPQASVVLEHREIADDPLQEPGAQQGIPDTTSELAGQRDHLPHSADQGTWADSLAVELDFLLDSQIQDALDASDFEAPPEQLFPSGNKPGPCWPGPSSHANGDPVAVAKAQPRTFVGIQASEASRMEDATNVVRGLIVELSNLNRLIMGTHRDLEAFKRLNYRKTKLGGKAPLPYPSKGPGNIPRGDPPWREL
UniProt Q8IYL3: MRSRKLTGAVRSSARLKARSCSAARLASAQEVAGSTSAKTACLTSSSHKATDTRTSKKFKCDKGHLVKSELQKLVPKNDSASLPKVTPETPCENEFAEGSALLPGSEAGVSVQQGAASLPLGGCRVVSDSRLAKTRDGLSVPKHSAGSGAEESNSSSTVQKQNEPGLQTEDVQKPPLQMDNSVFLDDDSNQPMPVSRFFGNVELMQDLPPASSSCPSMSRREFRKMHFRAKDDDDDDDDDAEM
UniProt Q9GZU0: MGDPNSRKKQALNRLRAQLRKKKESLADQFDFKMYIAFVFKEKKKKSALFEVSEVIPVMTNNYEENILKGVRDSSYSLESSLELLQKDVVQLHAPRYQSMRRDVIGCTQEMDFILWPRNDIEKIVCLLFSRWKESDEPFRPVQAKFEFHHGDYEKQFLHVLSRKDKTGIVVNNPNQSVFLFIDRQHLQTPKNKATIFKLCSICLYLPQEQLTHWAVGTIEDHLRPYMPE
UniProt A1L170: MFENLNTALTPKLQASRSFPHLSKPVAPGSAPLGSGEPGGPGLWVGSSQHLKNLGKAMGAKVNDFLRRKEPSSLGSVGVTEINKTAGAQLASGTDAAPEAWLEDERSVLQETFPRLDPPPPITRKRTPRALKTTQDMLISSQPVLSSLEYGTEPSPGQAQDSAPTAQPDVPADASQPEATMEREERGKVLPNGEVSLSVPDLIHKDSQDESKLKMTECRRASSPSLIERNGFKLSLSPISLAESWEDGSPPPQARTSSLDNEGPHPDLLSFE
UniProt Q9P1Y5: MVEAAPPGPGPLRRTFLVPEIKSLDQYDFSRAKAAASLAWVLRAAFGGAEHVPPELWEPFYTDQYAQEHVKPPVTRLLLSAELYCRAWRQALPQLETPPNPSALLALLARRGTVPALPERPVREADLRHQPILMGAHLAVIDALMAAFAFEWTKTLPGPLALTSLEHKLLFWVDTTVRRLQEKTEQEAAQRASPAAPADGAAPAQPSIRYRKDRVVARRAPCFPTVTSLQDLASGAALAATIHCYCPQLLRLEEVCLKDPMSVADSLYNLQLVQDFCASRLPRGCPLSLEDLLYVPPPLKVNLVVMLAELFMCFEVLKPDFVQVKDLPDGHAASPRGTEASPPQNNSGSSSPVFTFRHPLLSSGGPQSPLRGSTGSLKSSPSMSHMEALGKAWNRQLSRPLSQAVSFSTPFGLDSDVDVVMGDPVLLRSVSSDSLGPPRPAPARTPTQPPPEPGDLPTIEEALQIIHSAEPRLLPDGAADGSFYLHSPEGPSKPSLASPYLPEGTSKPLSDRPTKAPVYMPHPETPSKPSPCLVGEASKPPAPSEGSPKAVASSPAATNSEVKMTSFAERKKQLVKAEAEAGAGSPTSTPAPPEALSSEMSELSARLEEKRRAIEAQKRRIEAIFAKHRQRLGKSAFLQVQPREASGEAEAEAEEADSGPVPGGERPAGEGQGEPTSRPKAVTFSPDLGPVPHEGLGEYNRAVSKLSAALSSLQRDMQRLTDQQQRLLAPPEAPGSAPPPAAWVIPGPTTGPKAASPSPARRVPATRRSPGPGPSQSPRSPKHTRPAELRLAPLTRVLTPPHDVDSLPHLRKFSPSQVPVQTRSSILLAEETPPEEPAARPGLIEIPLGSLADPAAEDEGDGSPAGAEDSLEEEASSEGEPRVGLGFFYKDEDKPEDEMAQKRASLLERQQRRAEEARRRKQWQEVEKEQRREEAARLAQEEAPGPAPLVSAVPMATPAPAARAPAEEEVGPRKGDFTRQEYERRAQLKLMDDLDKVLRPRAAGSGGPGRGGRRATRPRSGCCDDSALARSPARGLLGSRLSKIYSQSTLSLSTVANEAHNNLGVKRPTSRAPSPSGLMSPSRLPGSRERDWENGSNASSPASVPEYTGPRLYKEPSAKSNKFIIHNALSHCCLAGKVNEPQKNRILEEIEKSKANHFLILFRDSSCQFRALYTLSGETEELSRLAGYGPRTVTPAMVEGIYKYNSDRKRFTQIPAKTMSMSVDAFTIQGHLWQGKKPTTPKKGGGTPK
UniProt Q6P5X5: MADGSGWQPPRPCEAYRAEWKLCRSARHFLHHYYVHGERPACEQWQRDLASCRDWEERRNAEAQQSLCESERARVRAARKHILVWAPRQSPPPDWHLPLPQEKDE
UniProt Q9BTV7: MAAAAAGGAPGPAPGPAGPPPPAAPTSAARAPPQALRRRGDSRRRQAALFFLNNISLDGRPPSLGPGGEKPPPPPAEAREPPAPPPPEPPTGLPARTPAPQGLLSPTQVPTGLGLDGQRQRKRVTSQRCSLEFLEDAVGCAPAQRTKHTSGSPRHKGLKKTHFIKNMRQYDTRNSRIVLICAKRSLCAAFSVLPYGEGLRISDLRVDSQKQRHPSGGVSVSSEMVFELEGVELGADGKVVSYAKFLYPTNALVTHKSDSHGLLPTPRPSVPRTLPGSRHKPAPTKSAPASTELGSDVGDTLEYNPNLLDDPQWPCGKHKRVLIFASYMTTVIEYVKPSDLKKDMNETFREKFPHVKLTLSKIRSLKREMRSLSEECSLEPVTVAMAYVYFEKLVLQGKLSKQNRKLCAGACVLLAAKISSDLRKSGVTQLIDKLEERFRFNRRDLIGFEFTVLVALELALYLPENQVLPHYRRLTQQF

The targets below were run with C#Cc1cccc(Nc2ncnc3cc(OCCOC)c(OCCOC)cc23)c1 [erlotinib] (assay: log2 fold change, soluble protein after heating vs DMSO (PISA); higher = thermal stabilisation; K562 lysate, 10 uM; active = over 0.2 and 3.5 SD of the protein, either way, in both replicates (recomputed)).
Summary of the method: (§1)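 Pellets of K562 cells were dounce-homogenised in PBS pH 7.4 with 1 mM MgCl2, and the crude extract was held at 1 mg/mL protein for a 30 min treatment with 10 μM compound. Aliquots were heated for 3 min over 48°C-58°C and pooled before NP-40 was added to 0.5% at 4°C. The supernatant from 21,000xg for 90 min was quantified by TMTpro 16plex LC-MS/MS with channel sums equalised. Values are reported from duplicates as log-two fold change in thermal stability relative to solvent controls.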

log2 fold change, inactive:
C12orf73 (UniProt Q69YU5) 0.009
C8orf88 (UniProt P0DMB2) -0.006
C1orf109 (UniProt Q9NX04) 0.178
CAP1 isoform 2 (UniProt Q01518) -0.027
C4orf46 (UniProt Q504U0) -0.263
C12orf4 (UniProt Q9NQ89) 0.117
C2orf76 (UniProt Q3KRA6) -0.013
C18orf21 (UniProt Q32NC0) -0.039
C11orf96 (UniProt Q7Z7L8) -0.127

These targets were tested with C/C(=N\NC(=O)C1=CC(=CC=C1)S(=O)(=O)N2CCOCC2)/C3=C(C=CC(=C3)Cl)O in the same assay as above.
Summary of the method: as §1

log2 fold change, inactive:
C16orf87 (UniProt Q6PH81) -0.259
CARD6 (UniProt Q9BX69) -0.332
C19orf57 (UniProt Q0VDD7) 0.215
C1orf174 (UniProt Q8IYL3) -0.025
C6orf62 (UniProt Q9GZU0) 0.023
CAPN1 (UniProt E9PLX0) 0.216
C1orf226 isoform 2 (UniProt A1L170) -0.081
CAMSAP3 isoform 2 (UniProt Q9P1Y5) 0.064
C22orf39 (UniProt Q6P5X5) 0.175
CABLES2 (UniProt Q9BTV7) -0.013
CANX (UniProt D6RHJ3) -0.321

The targets below were run with C1=CC(=CC=C1C2=NC3=C(N2)C=C(C=C3)C(=O)N)OC4=CC=C(C=C4)Cl in the same assay as above.
Summary of the method: as §1

log2 fold change, inactive:
C12orf73 (UniProt Q69YU5) 0.004
C8orf88 (UniProt P0DMB2) -0.185
C1orf109 (UniProt Q9NX04) -0.023
CAP1 isoform 2 (UniProt Q01518) 0.035
C4orf46 (UniProt Q504U0) -0.011
C12orf4 (UniProt Q9NQ89) 0.125
C2orf76 (UniProt Q3KRA6) -0.009
C18orf21 (UniProt Q32NC0) -0.057
C11orf96 (UniProt Q7Z7L8) -0.025

What follows are targets tested with C1=CC2=C(C=CC(=C2)/C=C\3/C(=O)NC(=NCC4=CC=CS4)S3)N=C1 in the same assay as above.
Summary of the method: as §1

log2 fold change, inactive:
C16orf87 (UniProt Q6PH81) 0.139
CARD6 (UniProt Q9BX69) 0.081
C19orf57 (UniProt Q0VDD7) -0.142
C1orf174 (UniProt Q8IYL3) -0.035
C6orf62 (UniProt Q9GZU0) 0.077
CAPN1 (UniProt E9PLX0) -0.16
C1orf226 isoform 2 (UniProt A1L170) 0.176
CAMSAP3 isoform 2 (UniProt Q9P1Y5) -0.057
C22orf39 (UniProt Q6P5X5) 0.103
CABLES2 (UniProt Q9BTV7) 0.045
CANX (UniProt D6RHJ3) 0.031
